Article PMC5433425 (PeerJ, 2017)
The source gives many values for each of these; only a part stands here.

Test system: E. coli AG100
Test: EtBr efflux by real-time fluorometry
Settings: 80 µM

CCCOc1ccc(-c2cc(OCCN3CCNCC3)c3ccccc3n2)cc1 [PQQ4R, 4-(2-(piperazin-1-yl)ethoxy)-2-(4-propoxyphenyl) quinolone]
EtBr fluorescence (Channel Cycling A.530/585hp) (cycle 1, without glucose): 11.6793 | EtBr fluorescence (Channel Cycling A.530/585hp) (cycle 2, without glucose): 11.5754 | EtBr fluorescence (Channel Cycling A.530/585hp) (cycle 3, without glucose): 11.468 | EtBr fluorescence (Channel Cycling A.530/585hp) (cycle 4, + glucose): 11.2886 | EtBr fluorescence (Channel Cycling A.530/585hp) (cycle 4, without glucose): 11.3183 | EtBr fluorescence (Channel Cycling A.530/585hp) (cycle 5, + glucose): 10.7898 | EtBr fluorescence (Channel Cycling A.530/585hp) (cycle 5, without glucose): 11.1947 | EtBr fluorescence (Channel Cycling A.530/585hp) (cycle 6, + glucose): 10.0917 | EtBr fluorescence (Channel Cycling A.530/585hp) (cycle 6, without glucose): 11.1944 | EtBr fluorescence (Channel Cycling A.530/585hp) (cycle 7, + glucose): 9.745 | EtBr fluorescence (Channel Cycling A.530/585hp) (cycle 7, without glucose): 11.3 | EtBr fluorescence (Channel Cycling A.530/585hp) (cycle 8, + glucose): 9.179 | EtBr fluorescence (Channel Cycling A.530/585hp) (cycle 8, without glucose): 11.1059 | EtBr fluorescence (Channel Cycling A.530/585hp) (cycle 9, without glucose): 11.2636 | EtBr fluorescence (Channel Cycling A.530/585hp) (cycle 10, without glucose): 10.8414 | EtBr fluorescence (Channel Cycling A.530/585hp) (cycle 11, without glucose): 11.0568 | EtBr fluorescence (Channel Cycling A.530/585hp) (cycle 12, without glucose): 10.9275 | EtBr fluorescence (Channel Cycling A.530/585hp) (cycle 13, without glucose): 11.0785 | EtBr fluorescence (Channel Cycling A.530/585hp) (cycle 14, without glucose): 10.9901 | EtBr fluorescence (Channel Cycling A.530/585hp) (cycle 15, without glucose): 11.0607 | EtBr fluorescence (Channel Cycling A.530/585hp) (cycle 16, without glucose): 10.956 | EtBr fluorescence (Channel Cycling A.530/585hp) (cycle 17, without glucose): 10.8466 | EtBr fluorescence (Channel Cycling A.530/585hp) (cycle 18, without glucose): 11.0904 | EtBr fluorescence (Channel Cycling A.530/585hp) (cycle 19, without glucose): 11.0539 | EtBr fluorescence (Channel Cycling A.530/585hp) (cycle 20, without glucose): 10.9923 | EtBr fluorescence (Channel Cycling A.530/585hp) (cycle 21, without glucose): 11.0261 | EtBr fluorescence (Channel Cycling A.530/585hp) (cycle 22, without glucose): 11.0073 | EtBr fluorescence (Channel Cycling A.530/585hp) (cycle 23, without glucose): 10.9912 | EtBr fluorescence (Channel Cycling A.530/585hp) (cycle 24, without glucose): 10.9329 | EtBr fluorescence (Channel Cycling A.530/585hp) (cycle 25, without glucose): 11.0553 | EtBr fluorescence (Channel Cycling A.530/585hp) (cycle 26, without glucose): 11.0163 | EtBr fluorescence (Channel Cycling A.530/585hp) (cycle 27, without glucose): 10.8243 | EtBr fluorescence (Channel Cycling A.530/585hp) (cycle 28, without glucose): 10.8258 | EtBr fluorescence (Channel Cycling A.530/585hp) (cycle 29, without glucose): 10.6446 | EtBr fluorescence (Channel Cycling A.530/585hp) (cycle 30, without glucose): 10.8079 | EtBr fluorescence (Channel Cycling A.530/585hp) (cycle 31, without glucose): 10.6956 | EtBr fluorescence (Channel Cycling A.530/585hp) (cycle 32, without glucose): 10.7933 | EtBr fluorescence (Channel Cycling A.530/585hp) (cycle 33, without glucose): 10.482 | EtBr fluorescence (Channel Cycling A.530/585hp) (cycle 34, without glucose): 10.487 | EtBr fluorescence (Channel Cycling A.530/585hp) (cycle 35, without glucose): 10.51 | EtBr fluorescence (Channel Cycling A.530/585hp) (cycle 36, without glucose): 10.4202 | EtBr fluorescence (Channel Cycling A.530/585hp) (cycle 37, without glucose): 10.3049 | EtBr fluorescence (Channel Cycling A.530/585hp) (cycle 38, without glucose): 10.3401 | EtBr fluorescence (Channel Cycling A.530/585hp) (cycle 39, without glucose): 10.1025 | EtBr fluorescence (Channel Cycling A.530/585hp) (cycle 40, without glucose): 10.1044 | EtBr fluorescence (Channel Cycling A.530/585hp) (cycle 41, without glucose): 10.038 | EtBr fluorescence (Channel Cycling A.530/585hp) (cycle 42, without glucose): 10.0003 | EtBr fluorescence (Channel Cycling A.530/585hp) (cycle 43, without glucose): 9.817 | EtBr fluorescence (Channel Cycling A.530/585hp) (cycle 44, without glucose): 9.3904 | EtBr fluorescence (Channel Cycling A.530/585hp) (cycle 45, + glucose): 4.671 | EtBr fluorescence (Channel Cycling A.530/585hp) (cycle 45, without glucose): 9.635 | EtBr fluorescence (Channel Cycling A.530/585hp) (cycle 46, + glucose): 4.673 | EtBr fluorescence (Channel Cycling A.530/585hp) (cycle 46, without glucose): 9.453 | EtBr fluorescence (Channel Cycling A.530/585hp) (cycle 47, + glucose): 4.6309 | EtBr fluorescence (Channel Cycling A.530/585hp) (cycle 47, without glucose): 9.538 | EtBr fluorescence (Channel Cycling A.530/585hp) (cycle 48, + glucose): 4.562 | EtBr fluorescence (Channel Cycling A.530/585hp) (cycle 48, without glucose): 9.52 | EtBr fluorescence (Channel Cycling A.530/585hp) (cycle 49, + glucose): 4.578 | EtBr fluorescence (Channel Cycling A.530/585hp) (cycle 49, without glucose): 9.39 | EtBr fluorescence (Channel Cycling A.530/585hp) (cycle 50, + glucose): 4.519 | EtBr fluorescence (Channel Cycling A.530/585hp) (cycle 50, without glucose): 9.396 | EtBr fluorescence (Channel Cycling A.530/585hp) (cycle 51, + glucose): 4.498 | EtBr fluorescence (Channel Cycling A.530/585hp) (cycle 51, without glucose): 9.2188 | EtBr fluorescence (Channel Cycling A.530/585hp) (cycle 52, + glucose): 4.498 | EtBr fluorescence (Channel Cycling A.530/585hp) (cycle 52, without glucose): 9.1371 | EtBr fluorescence (Channel Cycling A.530/585hp) (cycle 53, + glucose): 4.422 | EtBr fluorescence (Channel Cycling A.530/585hp) (cycle 53, without glucose): 9.1784 | EtBr fluorescence (Channel Cycling A.530/585hp) (cycle 54, + glucose): 4.425 | EtBr fluorescence (Channel Cycling A.530/585hp) (cycle 54, without glucose): 9.1862 | EtBr fluorescence (Channel Cycling A.530/585hp) (cycle 55, + glucose): 4.3 | EtBr fluorescence (Channel Cycling A.530/585hp) (cycle 55, without glucose): 9.022 | EtBr fluorescence (Channel Cycling A.530/585hp) (cycle 56, + glucose): 4.316 | EtBr fluorescence (Channel Cycling A.530/585hp) (cycle 56, without glucose): 8.907 | EtBr fluorescence (Channel Cycling A.530/585hp) (cycle 57, + glucose): 4.269 | EtBr fluorescence (Channel Cycling A.530/585hp) (cycle 57, without glucose): 9.017 | EtBr fluorescence (Channel Cycling A.530/585hp) (cycle 58, + glucose): 4.404 | EtBr fluorescence (Channel Cycling A.530/585hp) (cycle 58, without glucose): 8.904 | EtBr fluorescence (Channel Cycling A.530/585hp) (cycle 59, + glucose): 4.331 | EtBr fluorescence (Channel Cycling A.530/585hp) (cycle 59, without glucose): 9.036 | EtBr fluorescence (Channel Cycling A.530/585hp) (cycle 60, + glucose): 4.366 | EtBr fluorescence (Channel Cycling A.530/585hp) (cycle 60, without glucose): 8.8341 | EtBr fluorescence (Channel Cycling A.530/585hp) (cycle 61, + glucose): 4.262 | EtBr fluorescence (Channel Cycling A.530/585hp) (cycle 61, without glucose): 8.869
